Experimental findings from paper PMC7585092 are described below.

Amino acid sequences for entries named in this document (tags omitted).
UniProt Q5S007: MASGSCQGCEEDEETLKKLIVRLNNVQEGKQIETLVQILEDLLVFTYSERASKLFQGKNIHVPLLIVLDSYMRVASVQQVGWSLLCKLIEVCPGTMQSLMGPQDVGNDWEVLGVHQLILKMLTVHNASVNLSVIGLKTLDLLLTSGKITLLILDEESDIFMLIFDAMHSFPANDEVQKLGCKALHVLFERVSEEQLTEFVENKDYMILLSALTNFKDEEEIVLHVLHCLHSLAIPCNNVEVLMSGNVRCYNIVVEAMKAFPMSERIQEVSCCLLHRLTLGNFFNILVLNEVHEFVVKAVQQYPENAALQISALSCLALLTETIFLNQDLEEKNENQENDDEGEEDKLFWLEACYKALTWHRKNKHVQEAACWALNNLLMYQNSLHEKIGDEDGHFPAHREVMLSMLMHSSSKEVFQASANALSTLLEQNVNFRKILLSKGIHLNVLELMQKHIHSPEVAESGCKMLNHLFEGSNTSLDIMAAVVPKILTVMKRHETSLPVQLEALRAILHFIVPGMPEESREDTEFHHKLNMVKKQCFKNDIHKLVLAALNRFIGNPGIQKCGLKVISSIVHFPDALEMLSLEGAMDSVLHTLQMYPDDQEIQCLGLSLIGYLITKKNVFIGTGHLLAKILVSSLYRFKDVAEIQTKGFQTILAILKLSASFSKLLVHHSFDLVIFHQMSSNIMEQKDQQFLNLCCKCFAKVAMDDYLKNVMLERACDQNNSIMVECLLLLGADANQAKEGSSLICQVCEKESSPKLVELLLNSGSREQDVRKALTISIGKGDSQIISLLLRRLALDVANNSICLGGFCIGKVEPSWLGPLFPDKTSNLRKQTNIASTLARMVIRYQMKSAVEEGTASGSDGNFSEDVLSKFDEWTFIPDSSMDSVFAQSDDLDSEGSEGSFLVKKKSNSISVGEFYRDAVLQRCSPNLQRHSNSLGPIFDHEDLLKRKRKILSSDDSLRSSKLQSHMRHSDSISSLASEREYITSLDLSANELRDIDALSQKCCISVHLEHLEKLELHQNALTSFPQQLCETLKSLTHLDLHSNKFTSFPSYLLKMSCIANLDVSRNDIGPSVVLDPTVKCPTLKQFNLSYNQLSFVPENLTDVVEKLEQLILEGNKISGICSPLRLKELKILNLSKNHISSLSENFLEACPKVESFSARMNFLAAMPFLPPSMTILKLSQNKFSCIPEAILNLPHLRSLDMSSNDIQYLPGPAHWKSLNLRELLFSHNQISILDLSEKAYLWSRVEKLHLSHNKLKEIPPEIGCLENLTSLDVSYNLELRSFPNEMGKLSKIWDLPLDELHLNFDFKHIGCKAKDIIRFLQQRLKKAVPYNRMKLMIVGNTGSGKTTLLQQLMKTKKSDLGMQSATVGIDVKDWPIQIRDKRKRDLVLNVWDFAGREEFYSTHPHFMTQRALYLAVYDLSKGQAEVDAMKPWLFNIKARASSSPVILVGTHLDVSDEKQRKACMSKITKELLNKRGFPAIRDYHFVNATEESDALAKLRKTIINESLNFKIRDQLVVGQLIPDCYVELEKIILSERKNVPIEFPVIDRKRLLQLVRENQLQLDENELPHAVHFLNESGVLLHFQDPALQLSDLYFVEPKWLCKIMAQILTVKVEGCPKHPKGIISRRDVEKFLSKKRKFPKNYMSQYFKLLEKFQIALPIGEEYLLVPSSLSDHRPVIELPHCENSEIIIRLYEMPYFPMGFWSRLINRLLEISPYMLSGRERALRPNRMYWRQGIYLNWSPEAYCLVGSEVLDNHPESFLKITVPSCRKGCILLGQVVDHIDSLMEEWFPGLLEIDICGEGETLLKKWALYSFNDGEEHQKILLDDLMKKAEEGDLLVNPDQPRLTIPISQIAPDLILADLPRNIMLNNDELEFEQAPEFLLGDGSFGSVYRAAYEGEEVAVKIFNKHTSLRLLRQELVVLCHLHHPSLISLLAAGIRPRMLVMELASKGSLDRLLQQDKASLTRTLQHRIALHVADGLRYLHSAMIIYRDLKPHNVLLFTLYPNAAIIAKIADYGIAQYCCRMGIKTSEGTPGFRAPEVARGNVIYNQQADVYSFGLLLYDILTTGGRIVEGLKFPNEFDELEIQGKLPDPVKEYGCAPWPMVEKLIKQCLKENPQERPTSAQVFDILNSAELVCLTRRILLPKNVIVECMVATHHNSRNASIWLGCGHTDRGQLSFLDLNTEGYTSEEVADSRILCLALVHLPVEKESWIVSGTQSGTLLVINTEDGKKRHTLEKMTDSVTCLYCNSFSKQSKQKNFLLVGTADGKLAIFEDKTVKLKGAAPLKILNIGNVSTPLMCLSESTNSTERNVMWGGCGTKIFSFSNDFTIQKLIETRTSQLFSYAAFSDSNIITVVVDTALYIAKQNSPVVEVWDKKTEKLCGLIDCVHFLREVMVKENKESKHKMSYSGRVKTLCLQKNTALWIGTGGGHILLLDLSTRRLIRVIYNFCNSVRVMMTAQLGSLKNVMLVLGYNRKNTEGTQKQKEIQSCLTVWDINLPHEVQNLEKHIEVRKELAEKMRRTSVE

The target of this assay is GFP-tagged Leucine-rich repeat kinase 2 (LRRK2) (human) (UniProt Q5S007). The experiment in a line: co-IP; HEK293T cells co-transfected with LRRK2-GFP and PRDX2-flag; lysed in M-PER buffer 24h after transfection; lysates incubated with anti GFP conjugated beads O/N at 4 °C; washed 5 times with NP40 buffer (50mM Tris pH7.4, 150mM NaCl and 1% NP40); western blot with anti-flag.

These are yes or no findings as the source states them, for the method shown. In cells and extracts the contact can be indirect. Some results given as binding are weak or reduced against the parent protein; the word gives no strength. Sequences can lack the tags named with a protein.

B1: FLAG-tagged Peroxiredoxin 2 (PRDX2) (protein, UniProt P32119 1-198)
chain: MASGNARIGKPAPDFKATAVVDGAFKEVKLSDYKGKYVVLFFYPLDFTFVCPTEIIAFSNRAEDFRKLGCEVLGVSVDSQFTHLAWINTPRKEGGLGPLNIPLLADVTRRLSEDYGVLKTDEGIAYRGLFIIDGKGVLRQITVNDLPVGRSVDEALRLVQAFQYTDEHGEVCPAGWKPGSDTIKPNVDDSKEYFSKHN
On to B1, for which the binding result is “binds”.
